Results on four molecules are retold here after article PMC12724345.

Experiment [1] concerns the target Rep of TYLCV isolate Alb13 fused to SCFP^C (Rep-SCFP^C) (tomato yellow leaf curl virus (TYLCV), isolate Alb13). Put plainly: split reporter; multicolor BiFC in N. benthamiana: Rep-SCFP^C co-expressed with Venus^N-SUMO1 and SCFP^N-SCE1.
Experiment [2] has the same target. Put plainly: split reporter; BiFC with halves of S(CFP)3A in agroinfiltrated N. benthamiana leaf epidermal cells, with P19; confocal microscopy 3 days post-infiltration; signal in nuclear bodies.
The target in experiment [3] is Rep of TYLCV isolate Alb13, GAL4 two-hybrid fusion (tomato yellow leaf curl virus (TYLCV), isolate Alb13). Put plainly: two-hybrid; GAL4 system in S. cerevisiae PJ69-4α; Rep as GAL4 BD, SCE1 as GAL4 AD fusion; growth on -LWH with 1 mM 3AT, 30°C, 3 days.
Experiment [4] has as its target Rep of TYLCV fused to NLuc (split-luciferase assay) (tomato yellow leaf curl virus (TYLCV), isolate Alb13). Put plainly: split reporter; split-luciferase complementation (SLUC) in agroinfiltrated N. benthamiana leaves, with P19; luminescence imaged 3 days post-infiltration; unfused luciferase halves as negative controls.
The target in experiment [5] is Rep I217A, GAL4 BD fusion (tomato yellow leaf curl virus (TYLCV), isolate Almeria). Put plainly: two-hybrid; GAL4 system in S. cerevisiae PJ69-4α; Rep as GAL4 BD, SCE1 as GAL4 AD fusion; growth on -LWH with 1 mM 3AT, 30°C, 3 days.
In experiment [6] the target is Rep V216/I217A, GAL4 BD fusion (tomato yellow leaf curl virus (TYLCV), isolate Almeria). The description is as above.
In experiment [7] the target is Rep I215/V216A, GAL4 BD fusion (tomato yellow leaf curl virus (TYLCV), isolate Almeria). The experiment is described as above.

No constants are given. Whether binding was seen depends on the method and setting. For some assays here: A result given as binding can be weak or reduced; the word gives no strength. Tags and fused reporters may be left off the sequences shown. For some assays here: Binding seen in cells or lysates may run through a third protein.

B1: Arabidopsis SCE1 fused to SCFP^N (SCFP^N-SCE1) (enzyme, UniProt Q42551 1-160)
chain: MASGIARGRLAEERKSWRKNHPHGFVAKPETGQDGTVNLMVWHCTIPGKAGTDWEGGFFPLTMHFSEDYPSKPPKCKFPQGFFHPNVYPSGTVCLSILNEDYGWRPAITVKQILVGIQDLLDTPNPADPAQTDGYHLFCQDPVEYKKRVKLQSKQYPALV
Regarding B1, the binding result in experiment [1] and in experiment [2] was “binds” in each case.

B2: Arabidopsis SCE1 variant R14E/R18E/H21D (SCE1^SUM1), GAL4 two-hybrid fusion (enzyme, UniProt Q42551 1-160)
chain: MASGIARGRLAEEEKSWEKNDPHGFVAKPETGQDGTVNLMVWHCTIPGKAGTDWEGGFFPLTMHFSEDYPSKPPKCKFPQGFFHPNVYPSGTVCLSILNEDYGWRPAITVKQILVGIQDLLDTPNPADPAQTDGYHLFCQDPVEYKKRVKLQSKQYPALV
With B2, the binding result in experiment [3] is on record as “no binding”.

B3: Arabidopsis SCE1 fused to CLuc (split-luciferase assay) (enzyme, UniProt Q42551 1-160)
chain: MASGIARGRLAEERKSWRKNHPHGFVAKPETGQDGTVNLMVWHCTIPGKAGTDWEGGFFPLTMHFSEDYPSKPPKCKFPQGFFHPNVYPSGTVCLSILNEDYGWRPAITVKQILVGIQDLLDTPNPADPAQTDGYHLFCQDPVEYKKRVKLQSKQYPALV
Regarding B3, the binding result in experiment [4] was “binds”.

B4: Arabidopsis SCE1 (SUMO E2-conjugating enzyme 1), GAL4 AD fusion (enzyme, UniProt Q42551 1-160)
chain: MASGIARGRLAEERKSWRKNHPHGFVAKPETGQDGTVNLMVWHCTIPGKAGTDWEGGFFPLTMHFSEDYPSKPPKCKFPQGFFHPNVYPSGTVCLSILNEDYGWRPAITVKQILVGIQDLLDTPNPADPAQTDGYHLFCQDPVEYKKRVKLQSKQYPALV
On to B4, for which the binding entry in experiment [5] is “no binding”; in experiment [6], “no binding”; in experiment [7], “no binding”; in experiment [3], “binds”.
